Some of these results come from one statement about several compounds together.
Test system: r(CUG)12-MBNL1 complex
Assay: TR-FRET assay, disruption of the r(CUG)12-MBNL1 complex
Assay type: biochemical
Settings: 100 μM compound
Source text: DM1 is caused by an RNA gain-of-function mechanism in which r(CUG)^exp binds and inactivates proteins involved RNA biogenesis.^(25-29) One protein, muscleblind-like 1 (MBNL1), regulates the alternative splicing of a sub-set of RNAs that are de-regulated in DM1.^(27, 43-45) We discovered that Formula (I) compounds disrupt the r(CUG)12-MBNL1 complex in vitro as determined by a previously described time-resolved fluorescence resonance energy transfer (TR-FRET) assay (FIG. 1A).^(46)
The in vitro activity of library compounds was assessed by disruption of the r(CUG)12-MBNL1 complex using a previously reported TR-FRET assay.^(32, 46) Biotinylated RNA was folded at 60° C. in 1× Folding Buffer (20 mM HEPES, pH 7.5, […], and 10 mM NaCl) and slowly cooled to room temperature. The buffer was then adjusted to 1× Assay Buffer (1× Folding Buffer supplemented with 2 mM MgCl2, 2 mM CaCl2, 5 mM DTT, 0.1% BSA, 0.05% Tween-20) and MBNL1-His6 was added. […] Plates were incubated at room temperature for 1 h, and then TR-FRET was measured using a Molecular Devices SpectraMax M5 plate reader using an excitation wavelength of 345 nm and a 420 nm cutoff. Fluorescence was measured at 545 and 665 nm. Library compounds were screened for potential intrinsic fluorescence under screening conditions. No library compounds were fluorescent at 665 nm and two non-hit compounds have low fluorescence at 545 nm. […]

Compound: O=[N+]([O-])c1ccc2[nH]c(CCCc3nc4cc([N+](=O)[O-])ccc4[nH]3)nc2c1 [Compound 1]
- disruption of the r(CUG)12-MBNL1 complex: > 70%
